Our source for the survivor count and T/C values is PubChem BioAssay AID298 (DTP/NCI, 2004).

The list shows only some results of the screen, not a fair sample: it is rich in T/C values a quarter to a half above the control, in often repeated tests (any T/C) and in doses without a T/C. Further doses and runs are listed elsewhere. T/C is the treated group as % of the vehicle group. Schedule codes are those of the source, read here as Q, the interval in days (D) or hours (H), X, the number of doses. Some doses have a count of surviving animals in place of a T/C: the source holds a T/C of zero for them, seemingly a mark for toxic or unscored doses. Counts of survivors are from the toxicity check (mostly the fifth day) where no day follows; animals may have died later. Some entries hold several experiments; their values stand side by side, smallest first.

The experiment relates to MX-1 breast xenograft, intrarenal, nude mice, tumor weight. The experiment can be described thus: NCI In Vivo Anticancer Drug Screen. Data for tumor model Human Mammary Carcinoma MX-1 Xenograft (intrarenal inoculation) in NU/NU BALB/C (nude) mice. As to conditions: T/C endpoint: mean tumor weight change, higher T/C = larger tumour; for T/C: evaluated on day 11. Summed up: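 Efficacy in vivo: tumor measurement or survival of treated animals divided by that of vehicle-dosed controls.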
In general terms: Xenograft models place foreign cells or tissue in a host animal.

[1] abbreviates: dose: 1200.0 mg/kg/injection, schedule: Q04DX003 (ip), vehicle: saline with Tween-80.
[2] abbreviates: dose: 150.0 mg/kg/injection, schedule: Q04DX003 (ip), vehicle: saline with Tween-80.
The mark [3] stands for this setting: dose: 300.0 mg/kg/injection, schedule: Q04DX003 (ip), vehicle: saline with Tween-80.
Where [4] appears, read: dose: 600.0 mg/kg/injection, schedule: Q04DX003 (ip), vehicle: saline with Tween-80.
[5] abbreviates: dose: 300.0 mg/kg/injection, schedule: Q04DX003 (sc), vehicle: saline with Tween-80.
Setting [6] is: dose: 800.0 mg/kg/injection, schedule: Q04DX003 (ip), vehicle: saline with Tween-80.

As to `Clc1ccccc1C(Nc1cnccn1)Nc1cnccn1`, the survivor count under setting [1] is 2 of 6 on day 11 and 3 of 6 on day 11.

For `C=CCOc1cc2c(cc1C(C)c1ccc(OC)cc1)OCO2` (stereo not drawn), under “dose: 600.0 mg/kg/injection, schedule: Q04DX003 (ip), vehicle: Klucel (hydroxypropylcellulose) (HPC)”, the survivor count is 3 of 6 on day 11.

`COc1ccc(C(C)c2cc3c(cc2OC)OCO3)cc1` (stereo not drawn): the survivor count is reported as 1 of 6 on day 11 under setting [2], 0 of 6 on day 11 under setting [3], 0 of 6 on day 11 under setting [4] and 0 of 6 on day 11 under setting [1].

With `O=C(NC(Cc1ccc(I)cc1)C(=O)O)c1ccc(Br)cc1` (stereo not drawn), the T/C (dose: 37.5 mg/kg/injection, schedule: Q04DX003 (ip), vehicle: sodium bicarbonate) was 128 % of control. Besides, for the setting “dose: 300.0 mg/kg/injection, schedule: Q04DX003 (ip), vehicle: sodium bicarbonate”, the survivor count was 1 of 6 on day 11.

On to `CCC(/C=C/C1OC(=O)C=CC1C)=C\C(C)C/C=C/C(C)=C/C(C)C(=O)C(C)C(O)C(C)C/C(C)=C/C(=O)O` (stereo not drawn), for which the T/C (dose: 0.5 mg/kg/injection, schedule: Q04DX003 (ip), vehicle: saline + alcohol) was 130 % of control.

With `COC(=O)C12OCC34C(CC5C(C)C6=CC(=O)OC6=CC5(C)C3C(O)C1O)OC(=O)C(O)C24` (stereo not drawn), the survivor count (dose: 4.0 mg/kg/injection, schedule: Q04DX003 (ip), vehicle: Klucel (hydroxypropylcellulose) (HPC)) is 0 of 5 on day 11; the survivor count (dose: 5.7 mg/kg/injection, schedule: Q04DX003 (ip), vehicle: Klucel (hydroxypropylcellulose) (HPC)) is recorded as 0 of 3 on day 11; the survivor count (dose: 8.0 mg/kg/injection, schedule: Q04DX003 (ip), vehicle: Klucel (hydroxypropylcellulose) (HPC)) is reported as 0 of 6 on day 11; the survivor count (dose: 9.4 mg/kg/injection, schedule: Q04DX003 (ip), vehicle: Klucel (hydroxypropylcellulose) (HPC)) was 0 of 3 on day 11; the survivor count (dose: 16.0 mg/kg/injection, schedule: Q04DX003 (ip), vehicle: Klucel (hydroxypropylcellulose) (HPC)) was 0 of 6 on day 11; the survivor count (dose: 18.8 mg/kg/injection, schedule: Q04DX003 (ip), vehicle: Klucel (hydroxypropylcellulose) (HPC)) was 0 of 3 on day 11. In addition, the survivor count by setting is: (dose: 32.0 mg/kg/injection, schedule: Q04DX003 (ip), vehicle: Klucel (hydroxypropylcellulose) (HPC)) 0 of 6 on day 11; (dose: 37.5 mg/kg/injection, schedule: Q04DX003 (ip), vehicle: Klucel (hydroxypropylcellulose) (HPC)) 0 of 3 on day 11.

For `COc1cc(O)c2c(O)c3c(c4c2c1[C@]1(C4)C(C)=CCCC1(C)C)[C@H](O)[C@@]1(O)CC(=O)C(C(N)=O)=C(O)[C@@]1(O)C3=O`, the survivor count reads like this: under setting [2], 0 of 6 on day 11; under setting [3], 0 of 6 on day 11; under setting [4], 0 of 6 on day 11; under setting [1], 0 of 6 on day 11.

As to `CC(C)CCC(=O)c1ccoc1`, the survivor count (dose: 6.0 mg/kg/injection, schedule: Q01DX010 (ip), vehicle: saline with Tween-80) is listed as 0 of 6 on day 11.

For `CCC(C(=O)O)C(=O)O.[NH2-].[NH2-].[Pt+2]`, the survivor count runs as follows: (dose: 300.0 mg/kg/injection, schedule: Q04DX003 (sc), vehicle: saline) 0 of 6 on day 11; (dose: 300.0 mg/kg/injection, schedule: Q04DX003 (sc), vehicle: suspension in saline) 0 of 6 on day 11.

Take `C[CH2][Sn]([Cl])([CH2]C)[c]1cc[c]([Sn]([Cl])([CH2]C)[CH2]C)cc1`: the survivor count (dose: 2.0 mg/kg/injection, schedule: Q04DX003 (ip), vehicle: Klucel (hydroxypropylcellulose) (HPC)) is reported as 0 of 6 on day 11.

On to `CN(CO)c1nc(N(C)CO)nc(N(C)CO)n1`, for which the survivor count (dose: 50.0 mg/kg/injection, schedule: Q01DX010 (sc), vehicle: saline) was 1 of 2 on day 11 and the survivor count (dose: 200.0 mg/kg/injection, schedule: Q01DX010 (sc), vehicle: saline) is listed as 0 of 2 on day 11.

As to `O=C1N[C@H]2[C@H](O)[C@H](O)[C@@H](O)[C@H](O)[C@@H]2c2cc3c(c(O)c21)OCO3`, the T/C (dose: 6.25 mg/kg/injection, schedule: Q04DX003 (ip), vehicle: saline + alcohol) is 126 % of control. For the same compound, the survivor count is, setting by setting: (dose: 25.0 mg/kg/injection, schedule: Q04DX003 (ip), vehicle: saline + alcohol) 3 of 6 on day 11; (dose: 50.0 mg/kg/injection, schedule: Q04DX003 (ip), vehicle: saline + alcohol) 0 of 6 on day 11.

As for `CC1c2ccccc2CC(CCN(C)C)c2ccccc21` (stereo not drawn), the survivor count runs as follows: (dose: 75.0 mg/kg/injection, schedule: Q04DX003 (sc), vehicle: saline with Tween-80) 2 of 6 on day 11; (dose: 150.0 mg/kg/injection, schedule: Q04DX003 (sc), vehicle: saline with Tween-80) 0 of 6 on day 11; under setting [5], 0 of 6 on day 11; (dose: 600.0 mg/kg/injection, schedule: Q04DX003 (sc), vehicle: saline with Tween-80) 0 of 6 on day 11.

Regarding `COc1ccc2oc3c(ccc[n+]3C)c(=O)c2c1`, the T/C (dose: 100.0 mg/kg/injection, schedule: Q04DX003 (ip), vehicle: saline with Tween-80) was 126 % of control. In addition, the survivor count (dose: 400.0 mg/kg/injection, schedule: Q04DX003 (ip), vehicle: saline with Tween-80) is reported as 3 of 6 on day 11 and the survivor count under setting [6] is reported as 0 of 6 on day 11.

Turning to `Clc1cccc(Cl)c1C(Nc1nncs1)Nc1nncs1`, the survivor count under setting [6] is recorded as 1 of 6 on day 11.

For the compound `CNC(=O)O/N=C(\CN=[N+]=[N-])C(C)(C)C`, the survivor count (dose: 5.0 mg/kg/injection, schedule: Q04DX003 (sc), vehicle: saline) is listed as 0 of 6 on day 11.

As for `O=C1C=C(N2CC2)C(=O)C(N2CC2)=C1N1CC1`, where the note is “dose: 400.0 micrograms/kg/injection, schedule: Q04DX003 (ip), vehicle: saline”, the survivor count is 0 of 6 on day 11 and 1 of 5 on day 11.

Regarding `CN(Cc1cnc2nc(N)nc(N)c2n1)c1c(Cl)cc(C(=O)NC(CCC(=O)O)C(=O)O)cc1Cl` (stereo not drawn), the survivor count (dose: 100.0 mg/kg/injection, schedule: Q01DX010 (sc), vehicle: Klucel (hydroxypropylcellulose) (HPC)) is reported as 0 of 3 on day 11.

Turning to `COC1C(OC(=O)/C=C/C=C/C=C/C=C/C(=O)O)CCC2(CO2)C1C1(C)OC1CC=C(C)C` (stereo not drawn), where the note is “dose: 1200.0 mg/kg/injection, schedule: Q04DX003 (sc), vehicle: saline”, the survivor count is given as 0 of 6 on day 11.

`CCOC(=O)C1=C(Nc2ccc(OC)cc2)C(N)=NC1=N`: where the note is “dose: 1200.0 mg/kg/injection, schedule: Q04DX003 (ip), vehicle: suspension in saline”, the survivor count is 1 of 6 on day 11.

As to `O=C(/C=C/c1cccnc1)/C=C/c1cccnc1`, the T/C is 138 % of control (dose: 12.5 mg/kg/injection, schedule: Q04DX003 (ip), vehicle: Klucel (hydroxypropylcellulose) (HPC)) and 140 % of control (dose: 25.0 mg/kg/injection, schedule: Q04DX003 (ip), vehicle: Klucel (hydroxypropylcellulose) (HPC)). For the same compound, the survivor count (dose: 100.0 mg/kg/injection, schedule: Q04DX003 (ip), vehicle: Klucel (hydroxypropylcellulose) (HPC)) is recorded as 2 of 6 on day 11.

For the compound `NC(=O)CCC(N)C(=O)O` (stereo not drawn), for the setting “dose: 75.0 mg/kg/injection, schedule: Q04DX003 (ip), vehicle: suspension in saline”, the T/C is 137 % of control.

For the compound `COC12[C@@H]3N[C@@H]3CN1C1=C(C(=O)C(NCCSSCCNC3=C(C)C(=O)C4=C(C3=O)C(COC(N)=O)[C@]3(OC)C5N[C@@H]5CN43)=C(C)C1=O)[C@@H]2COC(N)=O` (stereo partly drawn), the survivor count is, setting by setting: (dose: 12.5 mg/kg/injection, schedule: Q04DX003 (ip), vehicle: DMSO) 3 of 6 on day 11; (dose: 25.0 mg/kg/injection, schedule: Q04DX003 (ip), vehicle: DMSO) 1 of 6 on day 11.

`CC(=O)ON(C(C)=O)c1ccc(C(N)=O)cc1`: the T/C under setting [5] is 132 % of control. Besides, for the setting “dose: 1200.0 mg/kg/injection, schedule: Q04DX003 (sc), vehicle: saline with Tween-80”, the survivor count is reported as 3 of 5 on day 11.

Regarding `CN(C)CCCN=c1c2ccccc2n(C)c2[nH]c(=O)n(C)c(=O)c12`, the survivor count is, setting by setting: (dose: 100.0 mg/kg/injection, schedule: Q04DX003 (ip), vehicle: saline) 0 of 6 on day 11; (dose: 200.0 mg/kg/injection, schedule: Q04DX003 (ip), vehicle: saline) 0 of 6 on day 11.
